The values below come from patent US20160271248A1, “CXCR4 UP- AND DOWN-REGULATION FOR TREATMENT OF DISEASES OR DISORDERS” (priority 2013, published 2016).

In assay [1] the test system is layer II/III pyramidal neurons of the prefrontal cortex. In words: In vivo dendritic spine analysis (Golgi stain, Neurolucida). On the set-up: species or system rat. As to conditions: slow-release morphine pellets, 4 days, 3-week-old rats.
In a further assay the test system is FHC. Conditions: slow-release morphine pellets, 4 days.

Regarding `CN1CC[C@]23c4c5ccc(O)c4O[C@H]2[C@@H](O)C=C[C@H]3[C@H]1C5` [morphine], in assay [1], the dendritic spine density entry is recorded as “significantly decrease dendritic spine densities”. The “levels of FHC in brain lysates” value in the assay with FHC is given as “increase levels of FHC in the brain lysates”.
